From PubChem BioAssay AID720504 (National Center for Advancing Translational Sciences (NCATS), 2013)
Out of some 360,000 compounds screened, about 10,000 (2.8%) were called active. The shares of active, inactive and inconclusive entries below differ from those in the screen. The call rests on the fitted dose curve; in most records, active means well fitted inhibition curve with a large enough effect; inconclusive means small, poorly fitted or top-dose-only effect; inactive means flat fitted curve, though single readings scatter. A potency beside an inconclusive call is a rough fit, not a confirmed value.

Chains of the proteins cited; added tags and fusions are not shown.
UniProt P53350, whole entry, looked up: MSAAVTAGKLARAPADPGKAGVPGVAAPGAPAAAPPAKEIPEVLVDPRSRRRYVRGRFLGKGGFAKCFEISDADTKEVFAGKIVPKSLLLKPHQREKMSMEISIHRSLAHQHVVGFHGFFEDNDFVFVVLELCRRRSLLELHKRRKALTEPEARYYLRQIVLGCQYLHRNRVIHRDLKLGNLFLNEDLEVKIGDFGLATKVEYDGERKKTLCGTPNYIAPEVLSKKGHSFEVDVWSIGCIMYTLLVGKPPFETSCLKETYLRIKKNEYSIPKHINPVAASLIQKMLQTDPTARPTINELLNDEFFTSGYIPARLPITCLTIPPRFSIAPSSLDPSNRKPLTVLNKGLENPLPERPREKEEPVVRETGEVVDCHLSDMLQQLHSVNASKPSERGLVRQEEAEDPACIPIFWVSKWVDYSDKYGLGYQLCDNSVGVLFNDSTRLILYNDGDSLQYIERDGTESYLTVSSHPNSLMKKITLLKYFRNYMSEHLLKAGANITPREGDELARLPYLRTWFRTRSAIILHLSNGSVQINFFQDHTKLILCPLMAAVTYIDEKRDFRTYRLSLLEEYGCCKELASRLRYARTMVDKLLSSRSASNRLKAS

Each compound was assayed against Serine/threonine-protein kinase PLK1 (Homo sapiens) (UniProt P53350) (assay: qHTS for Inhibitors of PLK1-PDB (polo-like kinase 1 - polo-box domain): Primary Screen). Conditions: Plk1 PBD binding of FITC phosphopeptide, fluorescence polarization.
Further: nearly all actives have a fitted effect of over 65% in size.
On the % scale 0 is the no-effect control and ±100 the full control effect; potency means the concentration at half of the fitted maximal effect.
Wherever max response, negative = inhibition is given: series mostly up to about 57 µM.

Compound | max response, negative = inhibition | Potency
CN(CC(=O)Nc1cccc(F)c1)C(=O)c1cccc(N2C(=O)CCC2=O)c1 | inactive: -1.95% | –
CCS(=O)(=O)N1CCN(c2ccc(C(=O)N3CCOCC3)cc2[N+](=O)[O-])CC1 | – | inconclusive: 2.99 µM [inhibitor, single point]
Cc1sc2nc3c(SC(C)C(=O)O)cc(C(=O)c4ccccc4O)cn3c(=O)c2c1C (stereo not drawn) | – | inconclusive: 23.8 µM [inhibitor, single point]
CC(=O)c1ccc(S(=O)(=O)N2Cc3ccccc3CC2C(=O)O)cc1 (stereo not drawn) | – | inconclusive: 21.2 µM [inhibitor, single point]
COc1ccc(C(=O)Nc2ccc(S(=O)(=O)Nc3nccnc3OC)cc2)cc1 | – | inconclusive: 23.8 µM [inhibitor, partial curve]
COC(CNC(=O)c1ccc2nc(-c3ccccc3)c(-c3ccccc3)nc2c1)OC | – | inconclusive: 29.9 µM [inhibitor, partial curve]
COC(=O)c1ccc(Cn2cc(C(F)(F)F)ccc2=O)cc1 | – | inconclusive: 21.2 µM [inhibitor, partial curve]
OC(CNCc1ccccc1C(F)(F)F)C(F)(F)F (stereo not drawn) | – | inconclusive: 21.2 µM [inhibitor, single point]
Cc1ccc2nc(Nc3nc(C)cc(-c4ccccc4)n3)[nH]c(=O)c2c1 | inactive: 0.901% | –
O=C(O)c1cccc2c1C(=O)c1cc([N+](=O)[O-])cc([N+](=O)[O-])c1-2 | – | inconclusive: 10.6 µM [inhibitor, partial curve]
C=CC(C)N1C(=O)S/C(=C\c2ccc(N3CCOCC3)cc2C)C1=O (stereo not drawn) | – | inconclusive: 29.9 µM [inhibitor, single point]
CCNC(=O)O/N=C1\CCCCC1c1ccc([N+](=O)[O-])cc1[N+](=O)[O-] (stereo not drawn) | – | inconclusive: 21.2 µM [inhibitor, single point]
CCOC(=O)c1cccc(NC(=O)COc2ccc([N+](=O)[O-])cc2)c1 | – | inconclusive: 37.7 µM [inhibitor, single point]
Cc1ccc(C(=O)C2=C(O)C(=O)N(c3ncccn3)C2c2ccc(Cl)cc2)o1 (stereo not drawn) | inactive: -10.8% | –
C=CCc1ccc(OCC(O)CN2CCN(Cc3ccc(Cl)cc3)CC2)c(OC)c1 (stereo not drawn) | inactive: -6.56% | –
Cc1ccc(NC2CC(=O)N(c3ccc(C)cc3)C2=O)cc1 (stereo not drawn) | – | inconclusive: 18.9 µM [inhibitor, partial curve]
CC(C)(C)c1n[nH]c2c1CCCC2 | – | active: 26.7 µM
CCc1nc2ccc(C(=O)N(C)CCN(C)C)cn2c1N(C)Cc1cc2ccccc2s1 | inactive: -8.14% | –
CCOc1ccc(NS(=O)(=O)c2cc(C(=O)N3CCN(c4ccccc4O)CC3)ccc2Cl)cc1 | inactive: 3.68% | –
COc1cc([N+](=O)[O-])ccc1NC(=S)N1CCN(c2ccccn2)CC1 | – | inconclusive: 21.2 µM [inhibitor, partial curve]
O=S(=O)(NC(=NCCc1ccc(Cl)cc1)c1ccccc1Cl)c1cccs1 | – | inconclusive: 33.6 µM [inhibitor, single point]
O=C(NNC(=S)NC(=O)c1cccc([N+](=O)[O-])c1)c1ccc(Br)cc1 | – | inconclusive: 29.9 µM [inhibitor, partial curve]

One compound at a time, from the list above. Order of values: max response, negative = inhibition | Potency
COC(=O)c1ccc(Cn2cc(C(F)(F)F)ccc2=O)cc1 in the list: – | inconclusive: 21.2 µM [inhibitor, partial curve]
CCS(=O)(=O)N1CCN(c2ccc(C(=O)N3CCOCC3)cc2[N+](=O)[O-])CC1 in the list: – | inconclusive: 2.99 µM [inhibitor, single point]

Going on with the list.

Compound | max response, negative = inhibition | Potency
COc1cccc(-c2nc(-c3ccccc3)c(-c3ccccc3)[nH]2)c1OCC(=O)O | – | inconclusive: 23.8 µM [inhibitor, single point]
CC(CC(=O)Nc1nnc(C(C)(C)C)s1)c1ccccc1 (stereo not drawn) | – | inconclusive: 21.2 µM [inhibitor, partial curve]
Cc1ccc2c(c1C)NC(C)CC2C (stereo not drawn) | – | inconclusive: 23.8 µM [inhibitor, single point]
O=C(OCn1ncc(Cl)c(Cl)c1=O)c1cccc(C(F)(F)F)c1 | – | inconclusive: 26.7 µM [inhibitor, partial curve]
O=C(COC(=O)c1ccc(F)c([N+](=O)[O-])c1)NC(=O)NCc1ccccc1 | – | inconclusive: 29.9 µM [inhibitor, partial curve]
COC(=O)c1ccc(COC(=O)c2ccccc2OC)cc1 | inactive: -0.801% | –
CC(C)N1C(=O)c2ccccc2NC(=O)C1C(=O)NCc1cccc(C(F)(F)F)c1 (stereo not drawn) | inactive: 0.105% | –
O=C1[C@@H](Oc2ccccc2)[C@@H](c2cccnc2)N1c1ccccc1 | inactive: -2.61% | –
Cc1ccc(/C([O-])=C(/C(=S)NCc2ccccc2)[n+]2cccc(CO)c2)cc1[N+](=O)[O-] | – | inconclusive: 33.6 µM [inhibitor, partial curve]
COc1ccc2nc(C(c3ccc(C)cc3)n3c(-c4ccccc4Br)nc4ccccc43)[nH]c2c1 (stereo not drawn) | inactive: -6.1% | –
COc1ccc(OC)c(/C=c2\sc3nc(-c4cccs4)nn3c2=O)c1 | – | inconclusive: 21.2 µM [inhibitor, partial curve]
Cn1c2c(c(=O)n(C)c1=O)C1c3ccccc3OCC1C(C)(C)O2 (stereo not drawn) | inconclusive: -30.9% [inhibitor] | –
C[C@H]1NS(=O)(=O)c2ccc(Br)cc2O[C@H]1c1ccccc1 | inactive: -11.5% | –
COc1ccc([C@H]2CC(=O)C=C(c3ccc4ncccc4c3)C2)cc1OC | inactive: -5.2% | –
O=C(NCc1cccc(Cl)c1)c1ccc2nc(N3CCOCC3)sc2c1 | – | active: 26.7 µM
Cc1c(NC(=O)C(c2ccccc2)c2ccccc2)cccc1C(=O)O | – | inconclusive: 13.4 µM [inhibitor, partial curve]
O=c1[nH]c2ccccc2c(O)c1-c1ccccc1[N+](=O)[O-] | – | active: 23.8 µM
Oc1cccc(/C=N\Nc2nncc(-c3ccccc3)n2)c1 | – | active: 21.2 µM
CCOc1cc(/C=N/Nc2cccc(C(=O)O)c2)ccc1OCC(=O)N1CCCCC1 | – | inconclusive: 29.9 µM [inhibitor, single point]
O=C(CCN1CCC(c2ccccc2)C1)c1ccccc1 (stereo not drawn) | – | inconclusive: 23.8 µM [inhibitor, partial curve]
O=C1C=C(O)CC(c2ccco2)C1 (stereo not drawn) | – | inconclusive: 23.8 µM [inhibitor, partial curve]
